Assay results from patent publication US20210395676A1, “CARRIER FOR CELL CULTURE COMPRISING MICROCAPSULES CONTAINING NATURAL OIL” (Korea Research Institute of Chemical Technology, priority 2018, published 2021).

System: artificial myocardial structure (cardiac organoid)
Assay: Contractile force-based cardiac toxicity assessment of drug-treated artificial myocardial structure
Format: cell-based
Conditions: 100 nM; FIG. 15
Excerpt: Furthermore, after additionally treating an artificial myocardial structure prepared by coculturing gelatin oil capsules and cardiomyocytes with various drugs, contractile forces of the drug-treated artificial myocardial structure were checked.

COC(=O)C1=C(C)NC(C)=C(C(=O)OC)C1c1ccccc1[N+](=O)[O-] [Nifedipine]
beat rates: changed into slow beat rates
contractile forces: weakened
